According to patent US20040098763A1:
Results are given in words; binding and its absence hold for the method and conditions named. Some binding calls cover weakened binding; strength is not graded here. For some of these results: Tags and fused reporters may be left off the sequences shown.

Protein sequences, listed by entry. Tags and fused reporters are not part of them. Lines headed by an entry give the natural chain unless they say otherwise; changes in a name come on top.
UniProt P04386: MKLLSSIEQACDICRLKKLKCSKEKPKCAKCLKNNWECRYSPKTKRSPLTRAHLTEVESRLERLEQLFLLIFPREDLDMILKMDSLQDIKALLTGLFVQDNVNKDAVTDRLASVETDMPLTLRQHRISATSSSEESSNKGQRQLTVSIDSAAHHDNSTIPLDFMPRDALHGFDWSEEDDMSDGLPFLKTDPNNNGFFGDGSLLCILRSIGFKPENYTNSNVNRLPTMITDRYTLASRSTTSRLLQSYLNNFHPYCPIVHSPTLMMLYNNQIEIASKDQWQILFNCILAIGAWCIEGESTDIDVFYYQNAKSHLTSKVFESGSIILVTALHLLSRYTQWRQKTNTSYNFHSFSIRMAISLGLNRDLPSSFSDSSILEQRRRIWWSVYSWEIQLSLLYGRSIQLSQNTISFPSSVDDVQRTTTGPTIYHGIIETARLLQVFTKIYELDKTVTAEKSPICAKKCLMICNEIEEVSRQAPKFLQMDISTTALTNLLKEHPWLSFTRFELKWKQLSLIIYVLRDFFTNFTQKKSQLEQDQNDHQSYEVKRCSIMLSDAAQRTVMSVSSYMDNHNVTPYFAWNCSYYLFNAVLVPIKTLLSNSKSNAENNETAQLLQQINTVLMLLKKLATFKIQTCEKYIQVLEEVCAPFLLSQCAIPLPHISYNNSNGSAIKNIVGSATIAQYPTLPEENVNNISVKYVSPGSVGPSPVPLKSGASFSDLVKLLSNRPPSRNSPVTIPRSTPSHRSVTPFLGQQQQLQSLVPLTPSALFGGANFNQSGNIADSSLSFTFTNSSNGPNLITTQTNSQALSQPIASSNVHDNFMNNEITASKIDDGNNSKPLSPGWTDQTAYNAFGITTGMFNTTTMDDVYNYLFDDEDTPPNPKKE
UniProt P24100: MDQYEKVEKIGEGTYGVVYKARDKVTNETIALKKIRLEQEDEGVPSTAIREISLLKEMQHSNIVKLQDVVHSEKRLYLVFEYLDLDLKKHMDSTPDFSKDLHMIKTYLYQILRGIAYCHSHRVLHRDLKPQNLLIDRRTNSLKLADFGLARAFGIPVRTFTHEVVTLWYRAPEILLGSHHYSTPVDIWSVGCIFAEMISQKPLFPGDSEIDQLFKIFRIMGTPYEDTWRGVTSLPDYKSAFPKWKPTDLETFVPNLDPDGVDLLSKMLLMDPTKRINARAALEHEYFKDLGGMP
UniProt P42751: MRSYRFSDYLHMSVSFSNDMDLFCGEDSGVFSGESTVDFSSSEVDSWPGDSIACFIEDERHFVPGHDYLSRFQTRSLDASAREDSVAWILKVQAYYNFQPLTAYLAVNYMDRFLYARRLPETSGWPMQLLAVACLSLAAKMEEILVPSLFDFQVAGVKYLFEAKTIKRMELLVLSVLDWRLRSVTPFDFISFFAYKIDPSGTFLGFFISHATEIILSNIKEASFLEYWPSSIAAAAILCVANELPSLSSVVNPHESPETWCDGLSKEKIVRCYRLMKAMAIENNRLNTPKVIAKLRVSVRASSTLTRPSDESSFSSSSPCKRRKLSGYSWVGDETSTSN
UniProt P42753: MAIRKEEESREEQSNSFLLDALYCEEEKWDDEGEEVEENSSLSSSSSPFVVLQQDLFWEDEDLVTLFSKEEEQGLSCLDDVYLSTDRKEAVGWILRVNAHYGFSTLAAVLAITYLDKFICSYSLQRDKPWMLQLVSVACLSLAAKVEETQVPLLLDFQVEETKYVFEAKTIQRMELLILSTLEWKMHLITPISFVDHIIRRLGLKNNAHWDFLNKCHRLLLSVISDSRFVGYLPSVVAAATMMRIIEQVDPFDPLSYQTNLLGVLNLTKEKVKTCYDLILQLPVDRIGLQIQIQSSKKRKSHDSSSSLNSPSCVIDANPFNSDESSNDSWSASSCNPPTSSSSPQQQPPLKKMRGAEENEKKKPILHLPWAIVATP
UniProt P42752: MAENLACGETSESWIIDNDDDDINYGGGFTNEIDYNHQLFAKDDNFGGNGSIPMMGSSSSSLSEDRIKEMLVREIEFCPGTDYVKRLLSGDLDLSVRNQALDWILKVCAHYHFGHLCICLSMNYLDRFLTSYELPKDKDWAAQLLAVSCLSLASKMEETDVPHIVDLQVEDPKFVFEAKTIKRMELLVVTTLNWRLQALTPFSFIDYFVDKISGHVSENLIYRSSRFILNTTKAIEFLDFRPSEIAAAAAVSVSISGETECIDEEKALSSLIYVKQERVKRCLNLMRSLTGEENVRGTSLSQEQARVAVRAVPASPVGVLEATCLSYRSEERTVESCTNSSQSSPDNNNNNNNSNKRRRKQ
UniProt P25859: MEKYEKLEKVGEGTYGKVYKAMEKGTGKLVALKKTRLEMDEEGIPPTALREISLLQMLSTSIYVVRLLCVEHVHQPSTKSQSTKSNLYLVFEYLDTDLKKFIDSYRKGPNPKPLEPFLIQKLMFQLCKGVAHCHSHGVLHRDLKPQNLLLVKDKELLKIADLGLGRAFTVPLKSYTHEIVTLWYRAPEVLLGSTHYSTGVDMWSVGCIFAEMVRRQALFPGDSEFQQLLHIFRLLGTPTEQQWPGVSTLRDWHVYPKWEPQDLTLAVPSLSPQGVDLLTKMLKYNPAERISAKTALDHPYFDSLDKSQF

B1: ICK1 in a GAL4-activation domain vector (protein, not shown: large carriers)
chain: MVRKYRKAKGIVEAGVSSTYMQLRSRRIVYVRSEKSSSVSVVGDNGVSSSCSGSNEYKKKELIHLEEEDKDGDTETSTYRRGTKRKLFENLREEEKEELSKSMENYSSEFESAVKESLDCCCSGRKTMEETVTAEEEEKAKLMTEMPTESEIEDFFVEAEKQLKEKFKKKYNFDFEKEKPLEGRYEWVKLE
B2: CKS1At (AD construct) (protein, UniProt O23249 1-87, looked up, not shown: large carriers)
chain: MGQIQYSEKYFDDTFEYRHVVLPPEVAKLLPKNRLLSENEWRAIGVQQSRGWVHYAVHRPEPHIMLFRRPLNYQQQQENQAQNMLVK
B3: ICN7 (AD construct) (protein, not shown: large carriers)
chain: MGKYMKKSKITGDISVMEVSKATAPSPGVRTRAAKTLALKRLNSSAADSALPNDSSCYLQLRSRRLEKPSSLIEPKQPPRVHRSGIKESGSRSRVDSVNSAPVAQSSNEDECFDNFVSVQVSCGENSLGFESRHSTRESTPCNFVEDMEIMVTPGSSTRSMCRATKEYTREQDNVIPTTSEMEEFFAYAEQQQQRLFMEKYNFDIVNDIPLSGRYEWVQVKP
B4: ICK2 (AD construct) (protein, not shown: large carriers)
chain: MAAVRRRERDVVEENGVTTTTVKRRKMEEEVDLVESRIILSPCVQATNRGGIVARNSAGASETSVVIVRRRDSPPVEEQCQIEEEDSSVSCCSTSEEKSKRRIEFVDLEENNGDDRETETSWIYDDLNKSEESMNMDSSSVAVEDVESRRRLRKSLHETVKEAELEDFFQVAEKDLRNKLLECSMKYNFDFEKDEPLGGGRYEWVKLNP
B5: ICN8 (AD construct) (protein, not shown: large carriers)
chain: MGKYIRKSKIDGAGAGAGGGGGGGGGGESSIALMDVVSPSSSSSLGVLTRAKSLALQQQQQRCLLQKPSSPSSLPPTSASPNPPSKQKMKKKQQQMNDCGSYLQLRSRRLQKKPPIVVIRSTKRRKQQRRNETCGRNPNPRSNLDSIRGDGSRSDSVSESVVFGKDKDLISEINKDPTFGQNFFDLEEEHTQSFNRTTRESTPCSLIRRPEIMTTPGSSTKLNICVSESNQREDSLSRSHRRRPTTPEMDEFFSGAEEEQQKQFIEKYNFDPVNEQPLPGRFEWTKVDD
B6: ICN2 (AD construct) (protein, not shown: large carriers)
chain: KKKQRERAHKNPREKKMSERKRELAEEASSTSFSPLKKTKLNDSSDSSPDSHDVIVFAVSSSSVASSAALASDECSVTIGGEESDQSSSISSGCFTSESKEIAKNSSSFGVDLEDHQIETETETSTFITSNFRKETSPVSEGLGETTTEMESSSATKRKQPGVRKTPTAAEIEDLFSELESQDDKKKQFIEKYNFDIVNDEPLEGRYKWDRL
B7: ICN6 (AD construct) (protein, not shown: large carriers)
chain: LSPEKTIMSLREMSETKPKRDSEYEGSNIKRMRLDDDDDVLRSPTRTLSSSSSSSLAYSVSDSGGFCSVALSEEEDDHLSSSISSGCSSSETNEIATRLPFSDLEAHEISETEISTLLTNNFRKQGISSSENLGETAEMDSATTEMRDQRKTEKKKKMEKSPTQAELDDFFSAAERYEQKRFTEKYNYDIVNDTPLEGRYQWVSLKP

target: T1, Cdc2a (Cdc2aAt) in DB-vector (Arabidopsis) (UniProt P04386+P24100); experiment: yeast two-hybrid, X-gal filter assay; ICK1 in GAL4-AD vector, partner in DB vector

binding	Binder
binds	B1

target: T2, CycD1 (Arath; CycD1; 1) in DB-vector (A. thaliana) (UniProt P04386+P42751); experiment: as above

binding	Binder
binds	B1

target: T3, CycD3 (Arath; CycD3; 1) in DB-vector (Arabidopsis) (UniProt P04386+P42753); experiment: as above

binding	Binder
binds	B1

target: T4, CycD2 (Arath; CycD2; 1) in DB-vector (Arabidopsis) (UniProt P04386+P42752); experiment: as above

binding	Binder
binds	B1

target: T1, Cdc2a (Cdc2aAt) in DB-vector (Arabidopsis); experiment: yeast two-hybrid

binding	Binder
binds	B1
binds	B2

target: T5, Cdc2b (Cdc2bAt) in DB-vector (A. thaliana) (UniProt P04386+P25859); experiment: yeast two-hybrid

binding	Binder
binds	B2

target: T2, CycD1 (Arath; CycD1; 1) in DB-vector (A. thaliana); experiment: yeast two-hybrid

binding	Binder
binds	B3
binds	B4
binds	B1
binds	B5
binds	B6
binds	B7

target: T3, CycD3 (Arath; CycD3; 1) in DB-vector (Arabidopsis); experiment: yeast two-hybrid

binding	Binder
binds	B3
binds	B4
binds	B1
binds	B5
binds	B6
binds	B7

target: T4, CycD2 (Arath; CycD2; 1) in DB-vector (Arabidopsis); experiment: yeast two-hybrid

binding	Binder
binds	B3
binds	B4
binds	B1
binds	B5
binds	B7

target: T1, Cdc2a (Cdc2aAt) in DB-vector (Arabidopsis); experiment: yeast two-hybrid (MaV203), X-Gal filter assay for β-galactosidase; AD construct x BD construct

binding	Binder
binds	B1
binds	B2

target: T5, Cdc2b (Cdc2bAt) in DB-vector (A. thaliana); experiment: as above

binding	Binder
binds	B2

target: T2, CycD1 (Arath; CycD1; 1) in DB-vector (A. thaliana); experiment: as above

binding	Binder
binds	B3
binds	B4
binds	B1
binds	B5
binds	B6
binds	B7

target: T3, CycD3 (Arath; CycD3; 1) in DB-vector (Arabidopsis); experiment: as above

binding	Binder
binds	B3
binds	B4
binds	B1
binds	B5
binds	B6
binds	B7

target: T4, CycD2 (Arath; CycD2; 1) in DB-vector (Arabidopsis); experiment: as above

binding	Binder
binds	B3
binds	B1
binds	B5
binds	B7
